Experimental data as given in PMC11006759.
No constants are given. Whether binding was seen depends on the method and setting. Binding seen in cells or lysates may run through a third protein. A yes stands for co-enrichment or nearness to the bait. Other partners may have been found.

Chains of the proteins cited; added tags and fusions are not shown.
UniProt Q9H0J4: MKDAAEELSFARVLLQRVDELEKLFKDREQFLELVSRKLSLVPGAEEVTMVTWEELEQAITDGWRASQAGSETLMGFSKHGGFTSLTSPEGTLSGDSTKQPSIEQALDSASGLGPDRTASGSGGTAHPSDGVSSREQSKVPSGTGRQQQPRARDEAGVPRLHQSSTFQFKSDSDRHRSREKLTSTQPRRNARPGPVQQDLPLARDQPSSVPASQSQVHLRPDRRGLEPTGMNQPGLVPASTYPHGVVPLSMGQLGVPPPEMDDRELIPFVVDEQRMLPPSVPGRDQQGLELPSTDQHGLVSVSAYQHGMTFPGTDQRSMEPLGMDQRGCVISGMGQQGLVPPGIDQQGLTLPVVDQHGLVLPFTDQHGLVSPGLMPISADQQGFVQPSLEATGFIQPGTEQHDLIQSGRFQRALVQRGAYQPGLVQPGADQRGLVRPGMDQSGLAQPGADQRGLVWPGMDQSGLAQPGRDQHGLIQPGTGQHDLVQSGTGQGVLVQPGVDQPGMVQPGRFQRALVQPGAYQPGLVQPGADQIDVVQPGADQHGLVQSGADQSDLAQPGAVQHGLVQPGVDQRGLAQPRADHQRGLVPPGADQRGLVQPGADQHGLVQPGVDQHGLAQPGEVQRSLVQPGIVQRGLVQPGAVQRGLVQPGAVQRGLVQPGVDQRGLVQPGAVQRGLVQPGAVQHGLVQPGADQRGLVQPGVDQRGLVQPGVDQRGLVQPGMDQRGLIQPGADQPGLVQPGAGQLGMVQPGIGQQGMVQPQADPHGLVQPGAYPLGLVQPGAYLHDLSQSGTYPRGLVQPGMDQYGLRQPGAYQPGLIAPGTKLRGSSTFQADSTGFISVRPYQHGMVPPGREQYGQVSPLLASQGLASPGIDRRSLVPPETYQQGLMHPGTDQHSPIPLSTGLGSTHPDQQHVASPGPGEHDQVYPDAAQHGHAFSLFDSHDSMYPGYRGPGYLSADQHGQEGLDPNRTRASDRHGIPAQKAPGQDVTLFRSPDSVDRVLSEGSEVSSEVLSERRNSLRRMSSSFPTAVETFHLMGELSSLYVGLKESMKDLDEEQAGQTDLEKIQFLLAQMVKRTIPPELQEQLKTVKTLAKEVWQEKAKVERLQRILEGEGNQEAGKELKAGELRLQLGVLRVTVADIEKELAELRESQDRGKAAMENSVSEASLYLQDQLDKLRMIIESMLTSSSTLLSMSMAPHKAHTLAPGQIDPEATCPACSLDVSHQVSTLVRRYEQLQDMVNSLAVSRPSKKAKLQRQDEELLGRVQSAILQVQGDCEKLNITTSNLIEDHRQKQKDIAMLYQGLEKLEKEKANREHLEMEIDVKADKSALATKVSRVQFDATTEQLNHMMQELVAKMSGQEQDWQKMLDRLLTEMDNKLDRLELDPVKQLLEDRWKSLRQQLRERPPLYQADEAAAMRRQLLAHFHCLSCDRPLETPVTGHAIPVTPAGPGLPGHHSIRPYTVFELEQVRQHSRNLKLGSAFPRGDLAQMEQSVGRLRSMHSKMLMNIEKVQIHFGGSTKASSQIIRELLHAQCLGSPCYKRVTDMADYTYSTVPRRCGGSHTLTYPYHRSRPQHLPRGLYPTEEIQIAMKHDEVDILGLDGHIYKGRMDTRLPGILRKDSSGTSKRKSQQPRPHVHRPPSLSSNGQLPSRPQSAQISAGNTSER
UniProt Q9BQE3: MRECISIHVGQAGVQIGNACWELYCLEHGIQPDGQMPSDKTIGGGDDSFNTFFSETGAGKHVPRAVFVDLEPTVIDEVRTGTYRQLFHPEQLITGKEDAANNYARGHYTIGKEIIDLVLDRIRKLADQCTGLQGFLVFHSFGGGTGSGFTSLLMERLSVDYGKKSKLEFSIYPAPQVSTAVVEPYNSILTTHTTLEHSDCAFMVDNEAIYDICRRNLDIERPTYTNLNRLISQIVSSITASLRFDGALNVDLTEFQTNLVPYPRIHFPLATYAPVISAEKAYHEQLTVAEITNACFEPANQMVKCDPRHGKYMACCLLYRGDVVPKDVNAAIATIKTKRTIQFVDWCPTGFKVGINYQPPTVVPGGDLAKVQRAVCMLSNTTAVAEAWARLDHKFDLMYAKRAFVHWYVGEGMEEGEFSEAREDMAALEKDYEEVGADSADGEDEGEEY
UniProt P68371: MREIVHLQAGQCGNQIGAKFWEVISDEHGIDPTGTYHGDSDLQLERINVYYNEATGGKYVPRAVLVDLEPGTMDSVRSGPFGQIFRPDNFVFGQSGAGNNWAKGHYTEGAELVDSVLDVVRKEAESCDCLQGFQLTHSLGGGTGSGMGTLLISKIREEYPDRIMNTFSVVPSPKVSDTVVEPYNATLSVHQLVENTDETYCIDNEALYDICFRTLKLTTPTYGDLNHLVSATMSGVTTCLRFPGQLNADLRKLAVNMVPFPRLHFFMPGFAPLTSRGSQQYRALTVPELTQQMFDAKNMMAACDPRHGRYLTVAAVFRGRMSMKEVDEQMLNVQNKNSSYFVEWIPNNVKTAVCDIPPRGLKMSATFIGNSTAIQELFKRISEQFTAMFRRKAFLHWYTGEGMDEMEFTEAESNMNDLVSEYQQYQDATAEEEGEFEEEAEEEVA
UniProt P07437: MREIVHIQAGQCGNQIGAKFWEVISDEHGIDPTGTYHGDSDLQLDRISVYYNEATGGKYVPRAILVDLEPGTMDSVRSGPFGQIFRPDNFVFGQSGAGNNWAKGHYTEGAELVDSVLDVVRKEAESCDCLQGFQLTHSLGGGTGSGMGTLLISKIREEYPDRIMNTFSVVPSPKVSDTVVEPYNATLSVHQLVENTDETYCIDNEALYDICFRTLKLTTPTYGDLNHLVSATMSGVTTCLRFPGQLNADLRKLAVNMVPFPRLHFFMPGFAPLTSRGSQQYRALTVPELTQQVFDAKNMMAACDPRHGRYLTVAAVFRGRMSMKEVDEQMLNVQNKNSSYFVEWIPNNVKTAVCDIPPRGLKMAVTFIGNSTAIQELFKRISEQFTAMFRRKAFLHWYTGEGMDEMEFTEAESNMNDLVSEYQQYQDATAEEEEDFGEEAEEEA

target: QRICH2 (bait of the IP-Mass spectrometry) (UniProt Q9H0J4); test: affinity purification with mass spectrometry; IP-Mass spectrometry of QRICH2; told only in the discussion, no methods given

binding | Substance
binds | TUBA1C (from UniProt Q9BQE3 1-449)
binds | TUBB4B (from UniProt P68371 1-445)
binds | TUBB (from UniProt P07437 1-444)
